Target: RBD-ACE2 attachment (RBD of viral spike protein and ACE2 receptor) (Severe acute respiratory syndrome coronavirus 2, UniProt P0DTC2)
Assay: cell-based
Parameters: species or system SARS-CoV-2; human

Question: With `O=C1CCc2ccc(OCCCCN3CCN(c4cccc(Cl)c4Cl)CC3)cc2N1` [Aripiprazole] as the compound, how does the EC50 read?
Answer: The EC50 was over 100 µM.

Reference: PMC8999638, “Identification of Entry Inhibitors against Delta and Omicron Variants of SARS-CoV-2” (International Journal of Molecular Sciences, 2022)
